## Results of single-concentration screens

Sequences of proteins named here, by UniProt entry; tags and fusion partners are left off. Residues count along the entry.
UniProt Q8IDJ8, 1-583: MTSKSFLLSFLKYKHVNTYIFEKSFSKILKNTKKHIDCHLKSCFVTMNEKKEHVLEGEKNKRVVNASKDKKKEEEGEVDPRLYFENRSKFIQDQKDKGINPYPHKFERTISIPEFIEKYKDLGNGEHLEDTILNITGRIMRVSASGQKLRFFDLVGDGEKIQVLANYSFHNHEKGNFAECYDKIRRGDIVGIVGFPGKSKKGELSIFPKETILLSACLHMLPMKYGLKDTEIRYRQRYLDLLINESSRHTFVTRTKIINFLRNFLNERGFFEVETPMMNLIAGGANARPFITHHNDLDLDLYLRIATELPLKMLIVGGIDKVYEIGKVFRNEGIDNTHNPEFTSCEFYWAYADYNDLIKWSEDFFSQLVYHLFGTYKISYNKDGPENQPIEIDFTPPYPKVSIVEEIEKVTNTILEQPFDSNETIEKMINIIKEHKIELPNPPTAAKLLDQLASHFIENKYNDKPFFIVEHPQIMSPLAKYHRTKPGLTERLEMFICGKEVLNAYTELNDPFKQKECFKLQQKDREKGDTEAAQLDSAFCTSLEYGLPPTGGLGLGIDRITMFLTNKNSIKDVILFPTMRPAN
UniProt P9WNZ1, whole entry: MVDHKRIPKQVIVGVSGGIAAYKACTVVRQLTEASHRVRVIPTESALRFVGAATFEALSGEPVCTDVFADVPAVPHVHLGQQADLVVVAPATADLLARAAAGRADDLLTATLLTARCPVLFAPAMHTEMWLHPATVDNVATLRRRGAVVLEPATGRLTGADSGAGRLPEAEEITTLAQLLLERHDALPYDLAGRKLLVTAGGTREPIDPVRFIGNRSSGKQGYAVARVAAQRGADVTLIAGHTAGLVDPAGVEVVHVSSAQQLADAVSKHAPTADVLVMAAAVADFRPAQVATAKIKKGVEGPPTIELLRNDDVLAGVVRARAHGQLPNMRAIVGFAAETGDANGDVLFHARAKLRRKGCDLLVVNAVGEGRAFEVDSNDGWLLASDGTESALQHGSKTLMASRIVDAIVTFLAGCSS

A: 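Enzyme assay of the cytosolic lysyl-tRNA synthetase in 384-well plates, read by luminescence. Target: Lysine-tRNA ligase, Plasmodium falciparum 3D7 (UniProt Q8IDJ8). Concentration: 30 µM. Higher reads as stronger inhibition, judged from the few compounds that gave an IC50. Size under these conditions: about 69,000 compounds, about 49 of them at 50% or above in at least one test.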
B: 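Assay of Toxoplasma gondii numbers, read through their beta-galactosidase reporter with a colour substrate. Compounds at 10 µM. The record gives no direction; the compounds picked for IC50 retests had high values, so higher reads as fewer parasites. About 67,000 compounds were tested under these conditions; 0.38% (about 260) showed 50% or more at least once.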
C: 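Enzyme assay of CoaBC with a phosphate dye (Biomol Green) read at 650 nm. Target: Coenzyme A biosynthesis protein CoaBC, Mycobacterium tuberculosis (UniProt P9WNZ1). Concentration: 30 µM. Direction is inferred from only a few compounds that gave an IC50; most scored high, so higher reads as stronger inhibition. Most strong results did not repeat in a second test. About 67,000 compounds were tested under these conditions; 0.06% (about 40) showed 50% or more at least once.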

The filed quantity is “Percent Effect” (%).
The controls that fix the scale are not given in the record; negative values are as filed.
This is an unselected part of the compounds tested.
A dash means the value is not listed here; it may have been measured.

compound,A,B,C
CC(=O)c1cccc(NC(=O)C2CN(S(=O)(=O)C3CC3)C2)c1,7.119%,6.178%,12.05%
CC1Oc2c(cccc2C(=O)N2CCN(CC(C)(C)O)CC2)NC1=O (stereo not shown),4.476%,7.29%,13.28%
Cc1cc(C)c2nc(CN(C)C(C)c3ccncn3)cc(O)c2c1 (stereo not shown),7.603%,3.488%,-2.232%
O=C(NCCCN1CCOCC1)c1ccn(COc2ccc(F)cc2)n1,-1.279%,-2.222%,7.621%
OC1(CNCCSCc2ccccc2)CCCNC1 (stereo not shown),4.263%,-,-0.615%
CN(Cc1ccc(Cl)s1)C(=O)c1ccccc1OCC(N)=O,4.656%,1.609%,1.837%
CC(C)N(C)S(=O)(=O)N1CCCC1C(=O)N1CCSCC1 (stereo not shown),4.18%,12.06%,1.229%
CCOc1cccc(CCNC(=O)Cc2cccc(O)c2)n1,6.69%,7.806%,4.634%
O=C(NCc1cc[nH]n1)NCC(O)c1ccc(F)cc1 (stereo not shown),-0.08436%,-2.475%,-0.6818%
CNc1cc(CNC(=O)c2ccnc(OC)c2)nc(-c2ccncc2)n1,3.889%,0.2585%,3.883%
Cc1cc(CC(C)Nc2ncnc3cccc(F)c23)[nH]n1 (stereo not shown),2.872%,2.497%,0.3628%
CCC(C)Nc1ccc2c(c1)C1(CCOCC1)C(=O)N2c1ccccc1 (stereo not shown),-0.04196%,-12.86%,3.333%
O=c1c(NCCNCCO)c(N2CCN(c3ccc(F)cc3)CC2)c1=O,6.922%,-1.438%,-0.7595%
CC(c1cccc(F)c1)N1CCN(Cc2nccn2C)CC1 (stereo not shown),3.63%,2.676%,3.655%
CCC1CN(C(=O)c2cc(CN(C)CCc3ccccc3)on2)CCO1 (stereo not shown),3.307%,6.175%,-1.22%
Cc1occc1C(=O)N1C[C@@H]2OCCN(c3ncccn3)[C@@H]2C1,-1.344%,-,2.836%
CCn1nc(C)cc1C(=O)N1CCOc2ccc(OC)cc21,5.217%,-7.156%,-2.686%
COc1ccccc1C1(NCc2c(C)nc3c(C)cccn23)CCCC1,1.259%,-,1.973%
CCS(=O)(=O)NC[C@]12COC[C@H]1CN(Cc1sccc1C)C2,-2.694%,-,2.284%
O=C(CCS(=O)(=O)C1CCCC1)NCCc1cccnc1,4.871%,-9.318%,11.73%
CC(Cc1ccco1)NC(=O)Nc1ccc(N2CCOCC2)nc1 (stereo not shown),2.486%,-25.41%,-0.266%
CCOC(=O)c1sc(NC(=O)C(C)(C)C)c(C#N)c1C,-10.05%,12.62%,-1.033%
Cc1cc(C)n(CC2CCCN2C(=O)c2cnn(C)c2C2CC2)n1 (stereo not shown),-2.342%,2.585%,0%
CCc1cc(C(=O)N2CCCC2c2nc(C)c(F)c(O)n2)on1 (stereo not shown),-0.2178%,-10.56%,-1.178%
CC(C)c1n[nH]c(C(=O)Nc2cc[nH]n2)c1Br,-3.093%,-,2.828%
COC(=O)C(NC(=O)C1CC1)c1cc(F)ccc1F (stereo not shown),0.9405%,19.37%,1.673%
CCS(=O)(=O)N(C)C1CCN(Cn2ccc(-c3ccc(F)cc3)n2)CC1,2.768%,6.321%,6.699%
Cc1nc(CN(C)C2CCN(Cc3ccc(Cl)s3)C2)no1 (stereo not shown),-2.282%,-10.23%,1.195%
COc1cccc(C2=CCN(CCN3CCCC3=O)CC2)c1,4.139%,-2.266%,5.992%
CC(C)N(C)Cc1cncc2c1CCN(CC1CC1)C2,-0.9948%,-,-3.589%
c1ccc(-n2nnnc2CNCC2CCCN2c2cccnn2)cc1 (stereo not shown),-0.8996%,-38.55%,4.563%
CC(Cn1ccnc1)NC(=O)N1CCN(Cc2cccs2)CC1 (stereo not shown),0.3596%,-17.7%,1.434%
Cc1noc([C@@H]2CCO[C@@H]3CCN(Cc4ccc(C)s4)C[C@@H]32)n1,2.498%,-,2.231%
CN1CCc2c(C#N)c(NCCCN3CCOCC3)n3cnnc3c2C1.Cl.Cl,-,-0.553%,-
[H][C@]12CC[C@]([H])(CN(C(=O)c3ccccn3)C1)N(C(=O)CCc1cccs1)C2,-,20%,-
CS(=O)(=O)CCCN1CCN(C(C#N)c2ccccc2)CC1 (stereo not shown),9.51%,-,0.3645%
c1cnc2c(c1)cc([C@@H]1CCCO1)n2CCN1CCCCC1,8.64%,-,-0.4902%
O=C(O)C(F)(F)F.[H][C@]12CCN(S(=O)(=O)c3ccccc3)CC[C@@]1([H])S(=O)(=O)CCN2CC(C)C,-,-12.85%,-
Cc1sc(CNS(N)(=O)=O)nc1-c1ccc(Cl)cc1,4.214%,-8.975%,6.796%
CN1CCC(N(Cc2ccco2)S(=O)(=O)c2ccc(Br)cc2Cl)CC1,7.588%,7.569%,-36.07%
Cc1ccc(CN2CCc3ncnc(-c4cccnc4)c3CC2)o1.O=C(O)C(F)(F)F.O=C(O)C(F)(F)F,-,-0.1068%,-
CN1C(=O)CCN(C(=O)C2CCCCC2)c2ccccc21,-0.6128%,17.82%,7.066%
CC(C)C(=O)NCC(=O)N(C)C1CCCN(C2Cc3ccccc3C2)C1 (stereo not shown),2.382%,-5.424%,-2.772%
CN(C)CCN1CCN(Cc2ccco2)Cc2cccnc21.O=C(O)C(F)(F)F.O=C(O)C(F)(F)F.O=C(O)C(F)(F)F,-,-2.377%,-
CN1C(=O)CCc2cc(NC(=O)C3CC(=O)N(CC4CC4)C3)ccc21 (stereo not shown),3.964%,9.207%,-2.804%
COc1nonc1NCn1nc(C)cc1C,-1.558%,-10.75%,0.1227%
Cc1ccc(NCc2cn3c(n2)CN(Cc2ccoc2)CC3)nn1.O=C(O)C(F)(F)F.O=C(O)C(F)(F)F,-,4.722%,-
O=C(O)C(F)(F)F.O=C(O)C(F)(F)F.[H][C@]12CCC[C@@]1(COCc1ccncc1)CN(C(=O)c1ccc(C)nc1)C2,-,2.144%,-
CC1CCN(CCNC(=O)C2CCN(C(=O)NC(C)C)CC2)CC1,2.586%,-6.7%,-1.282%
Cc1ccc(C(=O)NCCS(=O)(=O)N2CCSCC2)o1,3.466%,22.79%,10.91%
COCCN1CCc2ccccc2NCCC1=O,0.1151%,15.31%,1.104%
CC(C)COC(C)C(=O)N1CCCCCC1 (stereo not shown),-0.4635%,6.368%,13.41%
Cc1nc(C(C)C)sc1C(=O)NCCSc1ccccn1,9.443%,4.935%,1.459%
CCn1cnnc1CNC(=O)N1CCC(C)CC1,-0.2085%,8.961%,4.707%
O=C(O)C(F)(F)F.O=C(O)C(F)(F)F.O=C(O)C(F)(F)F.[H][C@@]12CN(Cc3ccncc3)C[C@]1([H])[C@@H](OC)CCN2Cc1cnn(C)c1,-,10.83%,-
CSCc1cc(C(=O)NC2(C#N)CC2)ccc1F,4.565%,5.319%,-0.1267%
Cn1ccnc1CN1CCC2(CC(=O)N(c3ccc4c(c3)OCO4)C2)C1 (stereo not shown),0.7349%,-,6.551%

For reference, 5 entries once more:

compound,A,B,C
O=C(O)C(F)(F)F.O=C(O)C(F)(F)F.[H][C@]12CCC[C@@]1(COCc1ccncc1)CN(C(=O)c1ccc(C)nc1)C2,-,2.144%,-
Cc1cc(CC(C)Nc2ncnc3cccc(F)c23)[nH]n1 (stereo not shown),2.872%,2.497%,0.3628%
CCc1cc(C(=O)N2CCCC2c2nc(C)c(F)c(O)n2)on1 (stereo not shown),-0.2178%,-10.56%,-1.178%
CC1CCN(CCNC(=O)C2CCN(C(=O)NC(C)C)CC2)CC1,2.586%,-6.7%,-1.282%
CCC(C)Nc1ccc2c(c1)C1(CCOCC1)C(=O)N2c1ccccc1 (stereo not shown),-0.04196%,-12.86%,3.333%

Data taken from ChEMBL document CHEMBL3988442, “University of Dundee, Small-Polar-MMV Screening Library” (2021).